In experiment [1] the target is T1, 5 × Myc-6 × His tagged CHRONO, transiently expressed from pcDNA3.1 (+) (human) (UniProt Q8N365).
T1 sequence: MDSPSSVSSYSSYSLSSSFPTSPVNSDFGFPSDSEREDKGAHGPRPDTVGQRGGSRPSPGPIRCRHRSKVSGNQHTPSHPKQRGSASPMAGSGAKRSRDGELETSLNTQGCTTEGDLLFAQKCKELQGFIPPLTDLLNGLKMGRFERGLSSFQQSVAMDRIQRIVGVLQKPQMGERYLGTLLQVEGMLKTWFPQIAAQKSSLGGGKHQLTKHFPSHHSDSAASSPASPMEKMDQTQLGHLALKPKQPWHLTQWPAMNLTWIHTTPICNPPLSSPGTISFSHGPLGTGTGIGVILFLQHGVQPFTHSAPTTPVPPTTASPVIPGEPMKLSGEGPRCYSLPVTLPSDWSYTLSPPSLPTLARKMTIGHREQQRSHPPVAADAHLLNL
Nature of the experiment: co-IP; HEK293T cotransfected with 5m6h-CHRONO and Flag-HA transporter (pcDNA3.1 (+)); whole cell lysate precipitated with anti-Myc antibody and Protein G magnetic beads, 4 °C overnight; blot with anti-Flag.

Amino acid sequences for entries named in this document (tags omitted).
UniProt Q92973: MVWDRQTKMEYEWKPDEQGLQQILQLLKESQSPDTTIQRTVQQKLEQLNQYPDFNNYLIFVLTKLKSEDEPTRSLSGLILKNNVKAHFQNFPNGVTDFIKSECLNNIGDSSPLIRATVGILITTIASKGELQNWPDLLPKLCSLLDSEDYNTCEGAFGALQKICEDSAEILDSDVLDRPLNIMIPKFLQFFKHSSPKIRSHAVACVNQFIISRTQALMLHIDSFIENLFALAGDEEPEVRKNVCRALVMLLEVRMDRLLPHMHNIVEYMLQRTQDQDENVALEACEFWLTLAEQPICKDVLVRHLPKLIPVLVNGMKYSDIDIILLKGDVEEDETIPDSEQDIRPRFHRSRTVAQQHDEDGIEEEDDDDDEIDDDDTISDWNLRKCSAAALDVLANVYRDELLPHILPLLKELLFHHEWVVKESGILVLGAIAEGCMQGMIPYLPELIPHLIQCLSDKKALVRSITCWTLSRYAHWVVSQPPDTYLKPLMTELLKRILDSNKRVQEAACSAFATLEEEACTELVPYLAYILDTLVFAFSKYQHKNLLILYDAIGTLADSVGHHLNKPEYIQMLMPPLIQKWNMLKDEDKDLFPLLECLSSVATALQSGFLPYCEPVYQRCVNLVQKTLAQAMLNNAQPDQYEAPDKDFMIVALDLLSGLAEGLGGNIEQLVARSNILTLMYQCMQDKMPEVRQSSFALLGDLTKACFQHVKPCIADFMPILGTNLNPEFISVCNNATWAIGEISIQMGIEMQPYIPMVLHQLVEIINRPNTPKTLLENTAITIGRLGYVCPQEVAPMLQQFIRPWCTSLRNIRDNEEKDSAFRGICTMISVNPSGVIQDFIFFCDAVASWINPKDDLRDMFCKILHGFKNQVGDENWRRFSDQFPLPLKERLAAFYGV
UniProt O15131: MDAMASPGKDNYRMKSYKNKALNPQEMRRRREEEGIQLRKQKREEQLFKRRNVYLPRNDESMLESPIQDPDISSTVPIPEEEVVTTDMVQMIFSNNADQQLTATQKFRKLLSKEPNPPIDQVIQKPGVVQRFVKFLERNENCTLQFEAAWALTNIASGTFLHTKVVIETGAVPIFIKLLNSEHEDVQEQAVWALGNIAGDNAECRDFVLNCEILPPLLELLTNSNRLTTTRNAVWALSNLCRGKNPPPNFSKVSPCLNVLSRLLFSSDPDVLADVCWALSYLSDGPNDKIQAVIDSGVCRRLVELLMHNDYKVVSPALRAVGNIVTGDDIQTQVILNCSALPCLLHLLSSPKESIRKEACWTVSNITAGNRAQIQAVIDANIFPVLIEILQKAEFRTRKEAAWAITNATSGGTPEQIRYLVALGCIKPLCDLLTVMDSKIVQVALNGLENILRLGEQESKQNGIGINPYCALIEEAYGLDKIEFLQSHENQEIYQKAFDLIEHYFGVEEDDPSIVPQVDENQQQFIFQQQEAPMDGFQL
UniProt P55060: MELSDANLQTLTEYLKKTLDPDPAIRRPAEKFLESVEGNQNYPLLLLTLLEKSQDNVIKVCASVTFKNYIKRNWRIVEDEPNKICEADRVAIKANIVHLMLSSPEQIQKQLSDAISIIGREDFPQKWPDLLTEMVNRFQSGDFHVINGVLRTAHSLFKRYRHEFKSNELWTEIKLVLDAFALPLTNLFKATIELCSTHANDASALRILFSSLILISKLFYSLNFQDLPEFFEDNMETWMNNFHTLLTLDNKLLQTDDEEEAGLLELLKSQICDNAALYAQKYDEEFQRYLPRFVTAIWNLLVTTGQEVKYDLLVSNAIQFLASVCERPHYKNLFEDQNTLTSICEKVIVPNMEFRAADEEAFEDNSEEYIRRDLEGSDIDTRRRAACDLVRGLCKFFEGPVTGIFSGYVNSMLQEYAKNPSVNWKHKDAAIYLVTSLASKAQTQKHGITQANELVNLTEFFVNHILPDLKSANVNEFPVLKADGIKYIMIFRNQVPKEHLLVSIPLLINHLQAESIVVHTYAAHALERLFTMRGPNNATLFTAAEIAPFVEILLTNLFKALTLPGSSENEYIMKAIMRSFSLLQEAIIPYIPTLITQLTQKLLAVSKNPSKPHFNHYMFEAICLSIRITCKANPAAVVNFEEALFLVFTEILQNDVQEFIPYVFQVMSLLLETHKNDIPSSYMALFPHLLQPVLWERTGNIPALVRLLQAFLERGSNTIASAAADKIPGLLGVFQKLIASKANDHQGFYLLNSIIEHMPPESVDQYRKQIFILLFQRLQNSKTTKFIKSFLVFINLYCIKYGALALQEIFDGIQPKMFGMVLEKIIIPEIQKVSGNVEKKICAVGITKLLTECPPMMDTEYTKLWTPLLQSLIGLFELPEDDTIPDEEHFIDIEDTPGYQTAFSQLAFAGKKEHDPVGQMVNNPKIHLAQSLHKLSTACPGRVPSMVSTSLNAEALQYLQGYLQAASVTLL
UniProt O00327: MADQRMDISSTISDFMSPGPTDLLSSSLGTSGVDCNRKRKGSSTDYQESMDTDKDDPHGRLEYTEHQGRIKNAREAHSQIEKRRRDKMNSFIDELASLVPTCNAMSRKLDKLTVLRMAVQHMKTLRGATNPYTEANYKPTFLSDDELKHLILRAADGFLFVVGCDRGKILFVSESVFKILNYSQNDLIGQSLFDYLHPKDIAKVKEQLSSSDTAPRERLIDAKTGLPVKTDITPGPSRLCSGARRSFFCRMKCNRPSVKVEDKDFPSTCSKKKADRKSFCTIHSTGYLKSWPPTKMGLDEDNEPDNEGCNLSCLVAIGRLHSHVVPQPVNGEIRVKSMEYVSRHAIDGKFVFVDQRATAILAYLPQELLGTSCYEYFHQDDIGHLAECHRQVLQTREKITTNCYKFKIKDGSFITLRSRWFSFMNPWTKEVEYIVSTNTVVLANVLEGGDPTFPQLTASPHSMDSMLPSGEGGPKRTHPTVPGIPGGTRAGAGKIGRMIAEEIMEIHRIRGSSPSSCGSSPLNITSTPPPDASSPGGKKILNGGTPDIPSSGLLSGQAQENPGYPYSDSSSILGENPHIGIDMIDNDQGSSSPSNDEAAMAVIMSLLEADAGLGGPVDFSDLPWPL

The target of experiment [2] is T1, 5 × Myc-6 × His tagged CHRONO, transiently expressed from pcDNA3.1 (+) (human). Nature of the experiment: co-IP; Flag labeled BMAL1 and Myc labeled CHRONO, each precipitated in turn with antibodies (reciprocal); cells not given.
A further experiment has as its target Flag-HA tagged KPNB2 (UniProt Q92973). Nature of the experiment: co-IP; reciprocal: Flag-tagged transporter precipitated with anti-Flag antibody, Myc-labeled CHRONO detected by blot (Fig. S4).
The next experiment has as its target Flag-HA tagged KPNA5 (UniProt O15131). Described as above.
The target in the next experiment is Flag-HA tagged CSE1L (UniProt P55060). The experiment is described as above.
In the next experiment the target is Flag labeled BMAL1 (UniProt O00327). Description: co-IP; Flag labeled BMAL1 and Myc labeled CHRONO, each precipitated in turn with antibodies (reciprocal); cells not given.
Experiment [3] deals with endogenous CSE1L of U2OS cells (human (endogenous in U2OS)) (UniProt P55060). Description: co-IP; nuclear extract of U2OS cells; KPNA5, KPNB2 or CSE1L precipitated individually with antibodies to each transporter; endogenous CHRONO detected by Western blot. Background: A western blot detects proteins with antibodies after separation by electrophoresis.
Experiment [4] addresses endogenous KPNB2 of U2OS cells (human (endogenous in U2OS)) (UniProt Q92973). The experiment is described as above.
Experiment [5] addresses endogenous KPNA5 of U2OS cells (human (endogenous in U2OS)) (UniProt O15131). Described as above.

These are yes or no findings as the source states them, for the method shown. In cells and extracts the contact can be indirect. Some entries that bind do so weakly or less than the wild type. For part of these data: Tags and fused reporters may be left off the sequences shown.

Turning to “Flag-HA tagged KPNA5 (from UniProt O15131 1-539)”, the binding entry in experiment [1] was “binds”.

As to “Flag labeled BMAL1 (from UniProt O00327 1-626)”, the binding result in experiment [2] was “binds”.

Consider “Flag-HA tagged KPNB2 (from UniProt Q92973 1-898)”, for which, in experiment [1], the binding entry is listed as “binds”.

For the molecule “Flag-HA tagged CSE1L (from UniProt P55060 1-971)”, the binding entry in experiment [1] is on record as “binds”.

B1: Flag-HA tagged TNPO2 (protein, UniProt O14787 1-897)
chain: MDWQPDEQGLQQVLQLLKDSQSPNTATQRIVQDKLKQLNQFPDFNNYLIFVLTRLKSEDEPTRSLSGLILKNNVKAHYQSFPPPVADFIKQECLNNIGDASSLIRATIGILITTIASKGELQMWPELLPQLCNLLNSEDYNTCEGAFGALQKICEDSSELLDSDALNRPLNIMIPKFLQFFKHCSPKIRSHAIACVNQFIMDRAQALMDNIDTFIEHLFALAVDDDPEVRKNVCRALVMLLEVRIDRLIPHMHSIIQYMLQRTQDHDENVALEACEFWLTLAEQPICKEVLASHLVQLIPILVNGMKYSEIDIILLKGDVEEDEAVPDSEQDIKPRFHKSRTVTLPHEAERPDGSEDAEDDDDDDALSDWNLRKCSAAALDVLANVFREELLPHLLPLLKGLLFHPEWVVKESGILVLGAIAEGCMQGMVPYLPELIPHLIQCLSDKKALVRSIACWTLSRYAHWVVSQPPDMHLKPLMTELLKRILDGNKRVQEAACSAFATLEEEACTELVPYLSYILDTLVFAFGKYQHKNLLILYDAIGTLADSVGHHLNQPEYIQKLMPPLIQKWNELKDEDKDLFPLLECLSSVATALQSGFLPYCEPVYQRCVTLVQKTLAQAMMYTQHPEQYEAPDKDFMIVALDLLSGLAEGLGGHVEQLVARSNIMTLLFQCMQDSMPEVRQSSFALLGDLTKACFIHVKPCIAEFMPILGTNLNPEFISVCNNATWAIGEICMQMGAEMQPYVQMVLNNLVEIINRPNTPKTLLENTGRLTSPSAIPAITIGRLGYVCPQEVAPMLQQFIRPWCTSLRNIRDNEEKDSAFRGICMMIGVNPGGVVQDFIFFCDAVASWVSPKDDLRDMFYKILHGFKDQVGEDNWQQFSEQFPPLLKERLAAFYGV
With B1, in [1], the binding result is reported as “binds”.

B2: 5 × Myc-6 × His tagged CHRONO, transiently expressed from pcDNA3.1 (+) (protein, UniProt Q8N365 1-385)
chain: T1 sequence
Turning to B2, the binding result in the experiment with Flag-HA tagged KPNB2, in the experiment with Flag-HA tagged KPNA5, with Flag-HA tagged CSE1L and in the experiment with Flag labeled BMAL1 was “binds” throughout.

B3: endogenous CHRONO of U2OS cells (protein, UniProt Q8N365 1-385)
chain: T1 sequence
In the case of B3, the binding entry in [3], in experiment [4] and in experiment [5] was “binds” throughout.

(Values after PMC11599456.)
